Results are given in words; binding and its absence hold for the method and conditions named. Some entries that bind do so weakly or less than the wild type.

Amino acid sequences for entries named in this document (tags omitted). Residues count along the entry.
UniProt P08603, residues 19-1231: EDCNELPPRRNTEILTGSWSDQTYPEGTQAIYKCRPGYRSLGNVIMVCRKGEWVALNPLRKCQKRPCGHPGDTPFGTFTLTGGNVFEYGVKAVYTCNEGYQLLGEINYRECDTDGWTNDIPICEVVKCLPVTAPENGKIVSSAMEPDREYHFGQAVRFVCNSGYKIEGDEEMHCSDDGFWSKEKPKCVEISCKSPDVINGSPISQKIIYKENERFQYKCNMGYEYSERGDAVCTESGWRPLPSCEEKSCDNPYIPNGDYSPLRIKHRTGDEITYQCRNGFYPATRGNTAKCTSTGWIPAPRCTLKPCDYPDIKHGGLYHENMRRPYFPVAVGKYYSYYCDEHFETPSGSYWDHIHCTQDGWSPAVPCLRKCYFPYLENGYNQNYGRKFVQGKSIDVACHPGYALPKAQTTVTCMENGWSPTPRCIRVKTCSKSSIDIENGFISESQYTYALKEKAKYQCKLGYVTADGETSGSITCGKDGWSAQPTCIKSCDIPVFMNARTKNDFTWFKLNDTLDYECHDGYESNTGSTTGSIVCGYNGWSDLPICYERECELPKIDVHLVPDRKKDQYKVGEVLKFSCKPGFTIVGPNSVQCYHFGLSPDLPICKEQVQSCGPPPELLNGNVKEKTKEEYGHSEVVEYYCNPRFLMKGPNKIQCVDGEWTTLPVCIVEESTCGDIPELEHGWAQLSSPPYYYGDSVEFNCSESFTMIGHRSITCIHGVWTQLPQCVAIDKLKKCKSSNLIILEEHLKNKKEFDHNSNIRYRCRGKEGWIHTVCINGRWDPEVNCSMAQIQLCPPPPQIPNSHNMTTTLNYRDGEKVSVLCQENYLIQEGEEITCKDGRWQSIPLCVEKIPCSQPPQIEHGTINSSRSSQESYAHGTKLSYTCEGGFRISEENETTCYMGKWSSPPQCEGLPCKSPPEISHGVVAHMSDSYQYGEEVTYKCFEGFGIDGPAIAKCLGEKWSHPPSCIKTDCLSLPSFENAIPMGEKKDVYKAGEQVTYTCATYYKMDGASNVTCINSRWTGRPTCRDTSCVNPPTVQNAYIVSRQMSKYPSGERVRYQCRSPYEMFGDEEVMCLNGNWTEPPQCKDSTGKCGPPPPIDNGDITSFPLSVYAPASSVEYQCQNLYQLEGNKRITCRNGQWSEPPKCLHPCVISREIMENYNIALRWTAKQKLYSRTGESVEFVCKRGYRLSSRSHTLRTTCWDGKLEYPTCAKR

In assay [1] the target is commercial purified human FH (Merck) (human) (UniProt P08603). In words: native gel or EMSA; native PAGE on 4-15% gels in Tris/Glycine, 5 h at 100 V; purified FH stored at 1.5 and 3 mg/ml, commercial FH at 1 mg/ml; both purified. A general note: A gel shift assay detects complexes by their altered migration in electrophoresis.
The target of assay [2] is purified human plasma complement Factor H concentrate (human) (UniProt P08603). The assay is described as above.

As to “commercial purified human FH (Merck) (from UniProt P08603 19-1231)”, the binding result in assay [1] is listed as “binds weakly”.
As to “purified human plasma complement Factor H concentrate (from UniProt P08603 19-1231)”, the binding entry in assay [2] is recorded as “binds weakly”.

The values above are taken from article PMC11197005.
